Measurements: PMC9450374
Results are given in words; binding and its absence hold for the method and conditions named. Binding seen in cells or lysates may run through a third protein. Some results given as binding are weak or reduced against the parent protein; the word gives no strength. Tags and fused reporters may be left off the sequences shown.

Biological target: T1, Myc box-dependent-interacting protein 1 (BIN1) (human (endogenous in MIA PaCa-2)) (UniProt O00499)
T1 sequence: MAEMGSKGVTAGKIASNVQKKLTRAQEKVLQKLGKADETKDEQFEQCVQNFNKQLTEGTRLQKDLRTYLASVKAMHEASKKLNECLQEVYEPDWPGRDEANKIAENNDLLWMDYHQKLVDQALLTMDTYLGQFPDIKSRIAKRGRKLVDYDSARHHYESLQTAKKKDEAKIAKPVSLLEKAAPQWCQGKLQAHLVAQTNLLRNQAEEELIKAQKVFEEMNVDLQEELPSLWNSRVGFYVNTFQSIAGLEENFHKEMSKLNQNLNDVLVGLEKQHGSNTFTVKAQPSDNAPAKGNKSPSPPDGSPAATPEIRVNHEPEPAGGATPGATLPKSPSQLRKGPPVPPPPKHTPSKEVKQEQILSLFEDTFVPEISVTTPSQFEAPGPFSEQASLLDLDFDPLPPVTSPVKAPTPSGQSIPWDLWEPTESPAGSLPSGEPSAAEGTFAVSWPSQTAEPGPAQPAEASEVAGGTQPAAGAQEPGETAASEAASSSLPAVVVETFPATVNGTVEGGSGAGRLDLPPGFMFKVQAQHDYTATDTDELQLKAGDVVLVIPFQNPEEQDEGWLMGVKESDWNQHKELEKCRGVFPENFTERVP
Assay: co-IP; MIA PaCa-2 cell lysate; also in cells transfected with circPDK1-WT or circPDK1-MUT and with RNase R (100 U/ml); method as in ref. 19; which protein was precipitated is not given

- binding: binds
B1: UBE2O (enzyme, UniProt Q9C0C9 1-1292)
chain: MADPAAPTPAAPAPAQAPAPAPEAVPAPAAAPVPAPAPASDSASGPSSDSGPEAGSQRLLFSHDLVSGRYRGSVHFGLVRLIHGEDSDSEGEEEGRGSSGCSEAGGAGHEEGRASPLRRGYVRVQWYPEGVKQHVKETKLKLEDRSVVPRDVVRHMRSTDSQCGTVIDVNIDCAVKLIGTNCIIYPVNSKDLQHIWPFMYGDYIAYDCWLGKVYDLKNQIILKLSNGARCSMNTEDGAKLYDVCPHVSDSGLFFDDSYGFYPGQVLIGPAKIFSSVQWLSGVKPVLSTKSKFRVVVEEVQVVELKVTWITKSFCPGGTDSVSPPPSVITQENLGRVKRLGCFDHAQRQLGERCLYVFPAKVEPAKIAWECPEKNCAQGEGSMAKKVKRLLKKQVVRIMSCSPDTQCSRDHSMEDPDKKGESKTKSEAESASPEETPDGSASPVEMQDEGAEEPHEAGEQLPPFLLKEGRDDRLHSAEQDADDEAADDTDDTSSVTSSASSTTSSQSGSGTSRKKSIPLSIKNLKRKHKRKKNKITRDFKPGDRVAVEVVTTMTSADVMWQDGSVECNIRSNDLFPVHHLDNNEFCPGDFVVDKRVQSCPDPAVYGVVQSGDHIGRTCMVKWFKLRPSGDDVELIGEEEDVSVYDIADHPDFRFRTTDIVIRIGNTEDGAPHKEDEPSVGQVARVDVSSKVEVVWADNSKTIILPQHLYNIESEIEESDYDSVEGSTSGASSDEWEDDSDSWETDNGLVEDEHPKIEEPPIPPLEQPVAPEDKGVVISEEAATAAVQGAVAMAAPMAGLMEKAGKDGPPKSFRELKEAIKILESLKNMTVEQLLTGSPTSPTVEPEKPTREKKFLDDIKKLQENLKKTLDNVAIVEEEKMEAVPDVERKEDKPEGQSPVKAEWPSETPVLCQQCGGKPGVTFTSAKGEVFSVLEFAPSNHSFKKIEFQPPEAKKFFSTVRKEMALLATSLPEGIMVKTFEDRMDLFSALIKGPTRTPYEDGLYLFDIQLPNIYPAVPPHFCYLSQCSGRLNPNLYDNGKVCVSLLGTWIGKGTERWTSKSSLLQVLISIQGLILVNEPYYNEAGFDSDRGLQEGYENSRCYNEMALIRVVQSMTQLVRRPPEVFEQEIRQHFSTGGWRLVNRIESWLETHALLEKAQALPNGVPKASSSPEPPAVAELSDSGQQEPEDGGPAPGEASQGSDSEGGAQGLASASRDHTDQTSETAPDASVPPSVKPKKRRKSYRSFLPEKSGYPDIGFPLFPLSKGFIKSIRGVLTQFRAALLEAGMPECTEDK
